According to article PMC7430671:
No constants are given. Whether binding was seen depends on the method and setting.

Chains of the proteins cited; added tags and fusions are not shown. Lines headed by an entry give the natural chain unless they say otherwise; changes in a name come on top.
UniProt P21513: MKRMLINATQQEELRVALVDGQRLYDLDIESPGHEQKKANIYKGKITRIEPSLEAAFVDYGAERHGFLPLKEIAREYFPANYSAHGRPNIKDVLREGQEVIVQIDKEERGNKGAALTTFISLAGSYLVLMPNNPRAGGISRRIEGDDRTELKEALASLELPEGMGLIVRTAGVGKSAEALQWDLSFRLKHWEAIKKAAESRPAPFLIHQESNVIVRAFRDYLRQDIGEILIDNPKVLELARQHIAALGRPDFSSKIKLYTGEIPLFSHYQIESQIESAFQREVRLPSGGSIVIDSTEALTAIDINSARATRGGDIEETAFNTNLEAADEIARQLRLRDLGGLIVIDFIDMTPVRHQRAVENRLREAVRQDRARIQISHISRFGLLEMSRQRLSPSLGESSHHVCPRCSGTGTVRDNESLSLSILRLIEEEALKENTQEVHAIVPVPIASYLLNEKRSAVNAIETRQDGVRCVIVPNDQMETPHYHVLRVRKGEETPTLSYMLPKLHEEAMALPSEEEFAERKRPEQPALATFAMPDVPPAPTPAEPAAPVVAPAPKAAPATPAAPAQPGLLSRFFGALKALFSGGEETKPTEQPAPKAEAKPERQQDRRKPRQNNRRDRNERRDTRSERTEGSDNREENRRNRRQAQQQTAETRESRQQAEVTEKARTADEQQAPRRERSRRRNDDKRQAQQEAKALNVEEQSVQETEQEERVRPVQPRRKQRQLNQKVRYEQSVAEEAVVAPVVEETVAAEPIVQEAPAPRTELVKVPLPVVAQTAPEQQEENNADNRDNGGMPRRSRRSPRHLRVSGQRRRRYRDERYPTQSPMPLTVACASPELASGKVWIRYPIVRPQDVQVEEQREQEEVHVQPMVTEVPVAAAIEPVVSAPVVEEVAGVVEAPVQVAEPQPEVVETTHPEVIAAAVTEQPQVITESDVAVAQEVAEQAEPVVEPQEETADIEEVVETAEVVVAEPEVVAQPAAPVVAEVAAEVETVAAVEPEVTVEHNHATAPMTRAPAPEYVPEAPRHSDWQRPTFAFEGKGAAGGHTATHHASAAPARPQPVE
UniProt P0A894: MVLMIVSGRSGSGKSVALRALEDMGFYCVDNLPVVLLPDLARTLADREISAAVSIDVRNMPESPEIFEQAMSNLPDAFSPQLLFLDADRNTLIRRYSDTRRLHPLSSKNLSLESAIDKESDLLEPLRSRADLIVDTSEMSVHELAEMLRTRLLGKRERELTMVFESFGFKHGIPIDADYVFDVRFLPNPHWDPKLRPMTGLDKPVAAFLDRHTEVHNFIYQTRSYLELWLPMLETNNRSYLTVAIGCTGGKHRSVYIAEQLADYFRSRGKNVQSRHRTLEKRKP

Target: full-length RNase E (RneFL), BACTH fusion (E. coli) (UniProt P21513)
Assay: two-hybrid; BACTH in E. coli BTH101: RapZ variant fused to T18, RNase E variant fused to T25; β-galactosidase activity of cells grown to stationary phase at 28°C

- binding: no binding
Substance: RapZ truncation lacking 8 residues from the carboxyl terminus, BACTH fusion (from UniProt P0A894) (domain or fragment)
